For experiment [1], the target named is T1, ASK1-TBD-HA (thioredoxin-binding domain of human ASK1, residues 88-302, HA tag) (human) (UniProt Q99683).
T1 sequence: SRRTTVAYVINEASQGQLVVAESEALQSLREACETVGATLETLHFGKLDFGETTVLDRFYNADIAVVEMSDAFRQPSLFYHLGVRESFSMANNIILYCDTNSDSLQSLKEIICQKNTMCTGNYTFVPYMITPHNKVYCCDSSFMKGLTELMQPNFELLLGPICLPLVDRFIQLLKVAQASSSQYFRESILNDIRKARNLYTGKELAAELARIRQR
Nature of the experiment: co-IP; HEK293T cotransfected with Trxlp-GFP and ASK1-TBD-HA; lysate (20 mM Tris, 100 mM KCl, 0.1% NP-40, 1 mM EDTA, 10% glycerol) precipitated with HA beads; blots with anti-GFP and anti-HA.

Experiment [2] addresses T2, ASK1-N (N-terminal fragment of ASK1 with the N-terminal coiled-coil domain, sequence 1-400), HA- or Flag-tagged (human) (UniProt Q99683).
T2 sequence: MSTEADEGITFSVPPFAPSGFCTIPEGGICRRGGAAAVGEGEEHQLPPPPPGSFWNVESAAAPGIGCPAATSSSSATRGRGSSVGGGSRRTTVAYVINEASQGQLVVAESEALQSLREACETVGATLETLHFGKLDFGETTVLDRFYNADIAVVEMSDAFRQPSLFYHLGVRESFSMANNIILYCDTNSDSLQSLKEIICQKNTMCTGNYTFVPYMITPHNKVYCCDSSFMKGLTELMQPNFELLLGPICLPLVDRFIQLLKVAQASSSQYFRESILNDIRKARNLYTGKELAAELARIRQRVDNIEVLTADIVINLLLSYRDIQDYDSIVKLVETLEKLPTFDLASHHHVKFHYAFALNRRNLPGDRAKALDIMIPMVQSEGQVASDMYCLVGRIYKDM
Nature of the experiment: co-IP; HEK293T transfected with combinations of ASK1-N-HA, ASK1-N-Flag, Trxlp-HA and human TRX1-HA; lysates precipitated with anti-flag antibody; blots with anti-Flag or anti-HA.

In experiment [3] the target is Trxlp-MBP (Edwardsiella piscicida EIB202). The experiment in a line: pull-down; purified Trxlp-MBP on MBP beads incubated with ASK1-TBD-His for 4 h at 4 °C, eluted with 20 mM maltose (also the reverse on His beads, eluted with 200 mM imidazole); blots with anti-His or anti-MBP; both purified.

Results are given in words; binding and its absence hold for the method and conditions named. A result given as binding can be weak or reduced; the word gives no strength. Tags and fused reporters may be left off the sequences shown. For part of these data: In cells and extracts the contact can be indirect.

With “Trxlp-GFP (Edwardsiella piscicida thioredoxin-like protein with GFP tag)”, the binding result in experiment [1] is recorded as “binds”.

Take “Trxlp-HA (Edwardsiella piscicida EIB202)”: the binding entry in experiment [2] is listed as “binds”.

B1: ASK1-TBD-His (thioredoxin-binding domain of human ASK1, residues 88-302, 6xHis tag) (domain or fragment, UniProt Q99683 88-302)
chain: T1 sequence
Consider B1, for which the binding entry in experiment [3] was “binds”.
